Measurements as given in the supplement of paper PMC3334620.
The full ranking holds about 33,000 sequences; the median of “E-score (-0.5 to 0.5)” is about -0.016, and the highest 2% start at about 0.3. The list shows a part of the results.

These sequences were tested against T1, Yer184c (UniProt P39961) (assay: PBM E-score (8-mer binding enrichment) (E-score (-0.5 to 0.5)); higher = stronger / more preferred TF binding). Settings: protein concentration: 100 nM; construct: GST-full length.
T1 sequence: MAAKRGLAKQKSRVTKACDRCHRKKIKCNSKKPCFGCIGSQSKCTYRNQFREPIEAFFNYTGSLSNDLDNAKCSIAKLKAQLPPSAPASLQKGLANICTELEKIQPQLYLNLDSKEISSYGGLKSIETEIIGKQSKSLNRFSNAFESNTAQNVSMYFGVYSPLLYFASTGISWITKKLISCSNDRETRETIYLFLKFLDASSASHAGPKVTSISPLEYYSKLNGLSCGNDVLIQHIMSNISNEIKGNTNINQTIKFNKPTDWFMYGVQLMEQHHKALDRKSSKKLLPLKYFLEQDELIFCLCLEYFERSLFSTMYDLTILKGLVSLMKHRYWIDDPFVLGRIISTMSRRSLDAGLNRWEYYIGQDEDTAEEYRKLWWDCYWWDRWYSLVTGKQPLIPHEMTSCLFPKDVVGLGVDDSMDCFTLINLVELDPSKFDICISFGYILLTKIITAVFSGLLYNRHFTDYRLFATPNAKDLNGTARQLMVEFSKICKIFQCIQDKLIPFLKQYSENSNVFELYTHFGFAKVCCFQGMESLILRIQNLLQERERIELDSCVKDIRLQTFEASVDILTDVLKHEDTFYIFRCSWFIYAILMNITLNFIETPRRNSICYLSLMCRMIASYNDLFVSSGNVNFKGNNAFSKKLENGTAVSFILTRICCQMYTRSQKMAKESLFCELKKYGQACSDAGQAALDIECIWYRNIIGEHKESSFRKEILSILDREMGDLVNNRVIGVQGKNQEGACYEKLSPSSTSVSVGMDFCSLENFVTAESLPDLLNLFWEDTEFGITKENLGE
In short: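 For each ungapped eight-base word taken together with its reverse complement, the Universal PBM Analysis Suite assigned an E-score. Binding data came from GST-tagged yeast transcription factors, applied at about 100-200 nM, on universal all-10-mer Agilent arrays made double-stranded by primer extension. Fluorescent anti-GST marked bound protein, and scans were normalised with masliner.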

| Sequence | PBM E-score |
| --- | --- |
| CCGCTTCA | 0.0485 |
| CAGACTTC | -0.17 |
| GCAGACAA | 0.0236 |
| AGCACGCC | -0.0156 |
| AGGAGGTA | -0.205 |
| AGACCCAC | -0.14 |
| GGTCCAAA | 0.0253 |
| ATTTTAGA | 0.0124 |
| CGTAGCCA | -0.16 |
| ACGCACGC | 0.181 |
| CAGTGCAG | -0.152 |
| CTAGGTGA | -0.263 |
| GCGCTTGA | 0.143 |
| ACTGAAGG | -0.131 |
| AAACCTGA | -0.166 |
| TTGGACAA | 0.0264 |
| CGTACCAG | -0.0638 |
| AGCCGTCA | 0.164 |
| ATGTACAT | 0.0621 |
| AGCCACGG | -0.0761 |
| AACCATGG | 0.0428 |
| ATGGTAAT | 0.124 |
| AGATCGTA | -0.235 |
| CTCAACAA | 0.129 |
| ATTCGAGG | -0.0108 |

2 records drawn at random from those above:

| Sequence | PBM E-score |
| --- | --- |
| GGTCCAAA | 0.0253 |
| ACTGAAGG | -0.131 |

More results

| Sequence | PBM E-score |
| --- | --- |
| GATCCTAA | -0.161 |
| ATCTTTGG | -0.167 |
| CCAGAGGG | -0.12 |
| ATATTACA | 0.225 |
| AATATAAA | 0.272 |
| AGTCTAGC | -0.191 |
| GACATCCC | -0.0741 |
| CGGTTGGC | 0.179 |
| CTTGGTAA | 0.0115 |
| GGCAGAAC | -0.147 |
| GAATCGTC | 0.0183 |
| ACGTCACT | -0.0421 |
| GATTTGGC | -0.187 |
| CTCACTTC | -0.227 |
| ATGCCCGA | -0.0802 |
| AGCATAGA | 0.0291 |
| TAATATTA | 0.381 |
| ATCGCAAT | -0.0156 |
| CCTCTCGC | -0.23 |
| CCACATAA | 0.0383 |
| CGGCGCAA | 0.178 |
| AACAGTGT | -0.13 |
| CGCGACAA | 0.184 |
| AGCCACAT | -0.0913 |
| CCCATTTA | -0.0636 |

| Sequence | PBM E-score |
| --- | --- |
| CACAAGCC | -0.0115 |
| CGACGATC | 0.157 |
| CGAGGGCC | -0.00612 |
| CAATAATC | 0.0448 |
| AAAGGAGG | -0.25 |
| ATGATCAT | 0.213 |
| AGGCCGGA | 0.247 |
| GATACACC | 0.16 |
| ACGAACGT | -0.0467 |
| CATAGACG | -0.0226 |
| CGGAAACA | 0.314 |
| GAAGTCTC | -0.102 |
| CGTCAAGA | -0.0776 |
| TAGACCTA | -0.0542 |
| CTTCTTTC | 0.024 |
| GCGCGAGA | 0.0921 |
| GCTTAAGC | -0.0896 |
| CTCGGATA | 0.305 |
| TGAGGTAA | 0.0222 |
| ATGGGGTC | -0.125 |
| CGTAAACC | -0.151 |
| AGCTACTA | 0.141 |
| GACTTATC | -0.0267 |
| CACTTGAC | -0.0817 |
| CGGTCCAC | -0.0592 |

| Sequence | PBM E-score |
| --- | --- |
| AAGAGCCG | 0.277 |
| GGGCACGA | -0.0329 |
| GCCCCGGC | 0.0665 |
| ATTAGGCC | 0.0212 |
| ATCCCGAG | 0.186 |
| GAGGAATA | 0.18 |
| CATGTTAA | 0.136 |
| GCCGCGAC | -0.055 |
| GGGCGACA | -0.17 |
| AATCATCG | 0.027 |
| TAGAATGA | -0.059 |
| ACCAGTCC | -0.285 |
| GTACTACA | 0.0564 |
| ACTTTTTG | 0.154 |
| GCTATGCA | -0.107 |
| ACATGCGG | -0.106 |
| ATCGGAGG | 0.00906 |
| AGTGGAGG | -0.12 |
| GTACAGGA | 0.0861 |
| ACTGTAAT | -0.1 |
| ACGCCGTG | 0.0103 |
| ATTCTCAC | 0.0808 |
| CTAGAGCA | -0.133 |
| ATCTACTC | 0.0132 |
| AGAGACGC | 0.0313 |

Quoted from the listing.
PBM E-score with ATCGGAGG reads 0.00906
PBM E-score with CATGTTAA reads 0.136
PBM E-score with AGAGACGC reads 0.0313
PBM E-score with ACATGCGG reads -0.106

Next part.

| Sequence | PBM E-score |
| --- | --- |
| CGGTTGAA | 0.304 |
| CTATCGCA | -0.167 |
| GCCTTGTA | -0.0102 |
| CGTAGGTA | 0.00445 |
| CCCAATCA | -0.119 |
| ATGTGACA | 0.033 |
| ACGACTGC | -0.188 |
| AAACTCAC | 0.0799 |
| ATAGATTG | 0.0162 |
| CGCCAAAG | -0.206 |
| GAGCCACA | -0.166 |
| CTGTGCTA | -0.119 |
| TCGCGCGA | 0.106 |
| AGAACTAG | -0.0106 |
| ATTGATCC | 0.206 |
| TAACGTTA | 0.117 |
| CGAATACC | -0.0246 |
| AGATCCAA | 0.0822 |
| CAAGTGCG | -0.0694 |
| ATACCGGA | 0.237 |
| CGCAGAAG | 0.00665 |
| AGATCTCC | -0.0782 |
| AGGCCGGG | 0.098 |
| GGGTCGAA | -0.0462 |
| CATCCCGG | 0.212 |

| Sequence | PBM E-score |
| --- | --- |
| ACCTGTAG | -0.203 |
| GTGGCAGA | -0.338 |
| ATGTGCCG | 0.18 |
| ACAAGAAG | 0.048 |
| ATAAGAGG | 0.0338 |
| CCGCTTAC | -0.046 |
| GAACATGA | 0.00797 |
| CGAAATTA | 0.224 |
| TTGCCAAA | 0.0432 |
| TACAAACA | 0.203 |
| AACCCTGA | -0.0461 |
| CATGCCTA | -0.261 |
| CCCTCGCC | -0.207 |
| GCAAGGGC | -0.274 |
| ATCGATTG | 0.156 |
| AACGCCAG | 0.0264 |
| CCGGCACC | 0.352 |
| CACGCGCG | -0.106 |
| CTTATGCC | 0.0866 |
| GCGTAGGA | -0.155 |
| AGCCATCC | 0.0367 |
| CTGAACAC | 0.149 |
| AGCTGGGA | -0.166 |
| CACAGCCA | -0.0852 |
| AGGCCGTC | -0.0989 |

| Sequence | PBM E-score |
| --- | --- |
| CGCCCAGC | -0.17 |
| GAGTACCC | -0.283 |
| CACGACCA | -0.127 |
| CTACCTGC | 0.0071 |
| ATCCGAGA | 0.252 |
| AGGTATAG | -0.18 |
| CGAAACGC | 0.00301 |
| AGTAGCGG | 0.126 |
| GAATGCCA | -0.142 |
| GGCCTAAA | -0.0147 |
| ACTGTCGA | -0.168 |
| GACGTCGA | 0.119 |
| ACAGACAG | 0.0219 |
| ACCAGTGG | -0.168 |
| ATCCTTTC | -0.0497 |
| GGCGGGGA | -0.00271 |
| ACAGTGGT | -0.186 |
| CCGATCTA | 0.127 |
| GCAACGCC | -0.0208 |
| ATATTAAG | 0.231 |
| AAAACTTT | -0.0258 |
| CACTGGTC | -0.218 |
| AACGGCCA | 0.175 |
| AAATGACC | 0.042 |
| GCGTCAAA | 0.0158 |

| Sequence | PBM E-score |
| --- | --- |
| CGGTTACC | 0.1 |
| ACACGCGT | -0.00984 |
| AGTTGCTC | -0.079 |
| GGCAGCCC | -0.0902 |
| CCATGTCA | -0.175 |
| GAAGGCAC | -0.00157 |
| CCTTGGAC | -0.171 |
| GGGGACAC | -0.223 |
| CTTAGTGC | 0.081 |
| AGCAAGCG | 0.0739 |
| AGGATCGA | -0.0278 |
| AGCCGGAG | 0.402 |
| ACAGGCAT | -0.183 |
| CCTGAACC | -0.086 |
| GTATACAC | 0.094 |
| AGGAGGAT | -0.169 |
| CACCGGGC | 0.0876 |
| AACCCACT | 0.0578 |
| GGGGGTGA | -0.245 |
| AAGCCTAC | -0.156 |
| CCCGCTTC | -0.112 |
| ATCAATTC | 0.136 |
| GTTAAAAA | 0.188 |
| GCTTGTCC | 0.114 |
| ACCAGCCT | -0.123 |

| Sequence | PBM E-score |
| --- | --- |
| CCAGCGAG | -0.17 |
| CTTGGAAA | 0.0917 |
| GTTGCGCA | -0.133 |
| AAGACCTT | -0.113 |
| GTGTCCGA | 0.214 |
| ATTCCGTC | 0.149 |
| TGTCCAAA | 0.143 |
| CCCAGGGA | -0.194 |
| CGAAATCC | 0.213 |
| TGGAGTAA | -0.00232 |
| CGCTAACA | -0.0628 |
| TCTTGCAA | 0.212 |
| ATATTTTA | 0.141 |
| ACATATGC | -0.356 |
| CGAGTATA | 0.0351 |
| GCCACCGA | -0.115 |
| AGACCGAC | 0.111 |
| AGCACTGA | -0.0659 |
| ACGTTATC | -0.1 |

In another format: results already given.
Sequence	PBM E-score
ACTGAAGG	-0.131
AGAGACGC	0.0313
ATATTAAG	0.231
